Literature values as cited in US6949522B2, “β-2′- or 3′-halonucleosides” (Pharmasset, Inc., priority 2001, dated 2005).
At least one structure is not confirmed: it was looked up by name or label, or the drawing left a doubt.

Tested on: HIV-1M184V
Settings: literature; cited from earlier work

SMILES: Nc1ccn([C@@H]2CS[C@H](CO)O2)c(=O)n1 [Compound 3TC, (−)-β-2′,3′-dideoxy-3′-thiacytidine, reference compound]
- fold increase of the 50% inhibitory concentration by M184V mutation: at least 1,000 fold
